From US20080234216A1
No constants are given. Whether binding was seen depends on the method and setting. Some entries that bind do so weakly or less than the wild type.

Chains of the proteins cited; added tags and fusions are not shown. Residues count along the entry.
UniProt P01137, residues 279-390: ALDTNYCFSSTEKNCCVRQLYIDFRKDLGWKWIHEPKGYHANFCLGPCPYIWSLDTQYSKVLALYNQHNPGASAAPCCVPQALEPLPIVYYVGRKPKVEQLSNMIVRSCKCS

Biological target: T1, Endogenous type II TGF-β receptor of L6 rat skeleton muscle myoblasts (rat) (UniProt P38438)
T1 sequence (looked up): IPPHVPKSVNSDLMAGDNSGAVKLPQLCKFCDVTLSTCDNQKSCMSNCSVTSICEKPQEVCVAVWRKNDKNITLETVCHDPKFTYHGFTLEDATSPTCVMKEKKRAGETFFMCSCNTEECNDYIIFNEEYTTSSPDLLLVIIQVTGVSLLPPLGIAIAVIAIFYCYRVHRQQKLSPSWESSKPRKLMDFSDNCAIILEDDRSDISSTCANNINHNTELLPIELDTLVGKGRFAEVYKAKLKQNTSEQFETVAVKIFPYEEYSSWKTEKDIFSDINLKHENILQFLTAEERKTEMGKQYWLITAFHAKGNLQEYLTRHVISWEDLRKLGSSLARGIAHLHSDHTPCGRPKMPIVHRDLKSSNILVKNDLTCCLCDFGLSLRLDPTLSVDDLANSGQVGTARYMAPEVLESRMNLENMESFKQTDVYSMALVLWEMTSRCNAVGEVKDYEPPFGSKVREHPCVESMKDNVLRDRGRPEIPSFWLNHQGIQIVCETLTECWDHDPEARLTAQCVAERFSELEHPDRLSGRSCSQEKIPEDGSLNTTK
Test: 125I-TGF-β cross-linking on L6 cells overexpressing the type III receptor

“Recombinant human TGF-β1 (from UniProt P01137 279-390) (ligand)” was tested. Which binding did it give?
Its binding is “binds”.
